Results: patent US20100028335A1
Results are given in words; binding and its absence hold for the method and conditions named. Binding seen in cells or lysates may run through a third protein. Some entries that bind do so weakly or less than the wild type.

The chains behind the UniProt entries cited, without tags or fusion partners. Residues count along the entry.
UniProt O75581, residues 20-1613: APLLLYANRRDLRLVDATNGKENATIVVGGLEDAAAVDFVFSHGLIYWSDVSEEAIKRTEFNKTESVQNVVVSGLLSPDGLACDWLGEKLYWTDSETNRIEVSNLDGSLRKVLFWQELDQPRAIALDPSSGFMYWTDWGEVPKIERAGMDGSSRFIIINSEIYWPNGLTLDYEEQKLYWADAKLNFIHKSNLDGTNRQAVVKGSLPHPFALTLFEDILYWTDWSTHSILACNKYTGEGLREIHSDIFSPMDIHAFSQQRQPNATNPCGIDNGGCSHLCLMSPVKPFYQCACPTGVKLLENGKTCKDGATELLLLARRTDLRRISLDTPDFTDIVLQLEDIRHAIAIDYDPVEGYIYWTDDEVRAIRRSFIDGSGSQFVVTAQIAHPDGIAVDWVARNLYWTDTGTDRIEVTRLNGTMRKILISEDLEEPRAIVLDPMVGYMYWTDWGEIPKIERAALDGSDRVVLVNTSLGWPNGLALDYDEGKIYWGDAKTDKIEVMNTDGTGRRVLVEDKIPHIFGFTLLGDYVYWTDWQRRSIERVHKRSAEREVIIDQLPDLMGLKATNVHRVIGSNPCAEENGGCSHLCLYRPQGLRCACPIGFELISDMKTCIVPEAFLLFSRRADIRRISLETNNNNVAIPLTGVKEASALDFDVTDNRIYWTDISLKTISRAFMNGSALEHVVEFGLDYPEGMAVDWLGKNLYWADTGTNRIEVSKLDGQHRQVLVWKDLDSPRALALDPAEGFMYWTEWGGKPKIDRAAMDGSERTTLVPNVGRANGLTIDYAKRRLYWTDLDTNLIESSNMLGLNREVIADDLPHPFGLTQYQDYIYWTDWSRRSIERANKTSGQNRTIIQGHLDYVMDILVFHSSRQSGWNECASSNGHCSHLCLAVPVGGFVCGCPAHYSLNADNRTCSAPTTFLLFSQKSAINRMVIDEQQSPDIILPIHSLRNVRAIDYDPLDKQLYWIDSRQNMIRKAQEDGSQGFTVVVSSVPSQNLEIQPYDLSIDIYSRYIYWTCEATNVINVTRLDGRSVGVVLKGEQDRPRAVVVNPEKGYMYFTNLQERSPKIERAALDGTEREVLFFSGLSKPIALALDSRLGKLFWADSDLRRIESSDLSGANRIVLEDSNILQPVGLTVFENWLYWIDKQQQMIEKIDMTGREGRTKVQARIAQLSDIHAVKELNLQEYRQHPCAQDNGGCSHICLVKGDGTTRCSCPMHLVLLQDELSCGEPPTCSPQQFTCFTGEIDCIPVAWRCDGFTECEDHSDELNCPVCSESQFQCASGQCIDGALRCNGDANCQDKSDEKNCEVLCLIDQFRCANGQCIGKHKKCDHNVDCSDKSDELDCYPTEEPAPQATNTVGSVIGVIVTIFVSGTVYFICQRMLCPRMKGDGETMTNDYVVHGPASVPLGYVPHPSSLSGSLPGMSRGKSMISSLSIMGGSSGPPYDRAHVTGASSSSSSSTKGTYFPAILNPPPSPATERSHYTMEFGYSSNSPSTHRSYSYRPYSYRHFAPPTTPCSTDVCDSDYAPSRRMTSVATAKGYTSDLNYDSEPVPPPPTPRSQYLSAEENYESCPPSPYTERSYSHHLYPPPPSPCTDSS
UniProt Q9BQB4, residues 24-213: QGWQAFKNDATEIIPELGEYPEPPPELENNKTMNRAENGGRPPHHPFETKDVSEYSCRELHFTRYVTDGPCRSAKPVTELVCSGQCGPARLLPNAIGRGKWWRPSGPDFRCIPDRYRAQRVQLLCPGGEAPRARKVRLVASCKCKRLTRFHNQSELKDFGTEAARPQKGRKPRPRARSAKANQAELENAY

What was measured:
[1] = target: Low-density lipoprotein receptor-related protein 6 (LRP6) (Human) (UniProt O75581); assay: TAP, LC-MS/MS
[2] = target: Low-density lipoprotein receptor-related protein 6 (LRP6) (Human) (UniProt O75581); assay: TAP, LC-MS/MS; Hek293 and UMR106 membrane fraction

binding [1]: binds
binding [2]: binds
Substance: TAP-tagged sclerostin (N- or C-terminally tagged, construct not distinguished where told) (from UniProt Q9BQB4 24-213) (ligand)
